Assay results as given in the supplement of paper PMC3334620.
In all, about 33,000 sequences were measured (“E-score (-0.5 to 0.5)”: median about -0.0014, highest 2% from about 0.25 on). This is one part of the list.

Target: T1, Cad1 (UniProt P24813)
T1 sequence: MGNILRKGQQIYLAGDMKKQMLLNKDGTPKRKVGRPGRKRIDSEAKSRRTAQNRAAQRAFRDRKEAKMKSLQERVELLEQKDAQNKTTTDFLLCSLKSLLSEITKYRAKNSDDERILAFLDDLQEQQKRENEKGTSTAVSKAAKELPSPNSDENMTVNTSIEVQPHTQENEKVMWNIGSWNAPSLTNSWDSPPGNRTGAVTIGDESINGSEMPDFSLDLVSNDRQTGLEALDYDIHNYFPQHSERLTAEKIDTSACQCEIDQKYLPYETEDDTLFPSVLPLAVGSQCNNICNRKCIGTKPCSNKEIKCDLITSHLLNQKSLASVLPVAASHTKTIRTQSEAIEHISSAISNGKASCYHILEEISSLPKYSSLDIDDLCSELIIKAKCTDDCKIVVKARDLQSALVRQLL
Assay: PBM E-score (8-mer binding enrichment) (E-score (-0.5 to 0.5)); higher = stronger / more preferred TF binding
Conditions: protein concentration: 100 nM; construct: GST-full length
Description: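 Universal 'all 10-mer' protein binding microarrays (Agilent AMADID 015681) probed with GST-tagged S. cerevisiae TFs (full-length or DBD) made by in vitro transcription/translation (PURExpress), about 100-200 nM. Bound TF was detected with fluorescent anti-GST. Each ungapped 8-mer (which stands for itself and its reverse complement) is scored by the PBM enrichment score (E-score), a modified Wilcoxon-Mann-Whitney statistic from -0.5 to +0.5, computed with the Universal PBM Analysis Suite. Scale: above 0.35 generally sequence-specific binding.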

Point of comparison: TAGAAGAA, “PBM E-score” value -0.125. Against it:
- GGTTACAA — higher, 0.163
- AATACATA — higher, 0.0519
- AACGGGCG — higher, 0.0329
- AACCTGCA — higher, 0.196
- AGCAACAA — higher, 0.221
- ACGGTGAT — higher, -0.00573
- CAACGCGC — higher, 0.311
- AATATCTC — higher, 0.151
- ATATTGCG — higher, 0.192
- ACTCATTA — higher, 0.109
- ACAGAGCA — higher, 0.0563
- GTCCTCGA — higher, 0.0464
- GCAACCAC — higher, -0.0341
- ACCCATTG — lower, -0.193
- ACGTTGCC — higher, -0.0546
- CTGGTCTC — lower, -0.223
- GAACTGAC — higher, 0.027
- CCACTAAA — higher, 0.0682
- ACAACGCA — higher, 0.0691
- AGTTGGAG — higher, -0.0898
- CCTAGAAC — higher, 0.0555
- ATGGAATA — higher, 0.135
- AAAACCAG — higher, 0.0595
- CCTATCTA — higher, -0.0911
- ATTTGATC — higher, -0.0183
- CGCCTCAG — higher, 0.00601
- AATACCCC — higher, -0.0618
- GATTGGAC — higher, 0.029
- ATCCGTCG — higher, 0.115
- TAATCCCA — higher, -0.0386
- TAAAGAGA — higher, -1e-05
- GTCACTCA — higher, -0.0176
- CAGGCGGA — higher, 0.0668
- GCAGCTCA — higher, -0.101
- CAGCGATC — higher, 0.00343
- TGATAACA — higher, 0.185
- ACTGCGTG — higher, -0.0586
- GCAATCTA — higher, -0.062
- AACACCGC — higher, 0.00817
- AAAATCAA — higher, 0.121
- GGAACGCC — higher, -0.0791
- ACGGCCTG — higher, 0.0523
- CCACCTGA — higher, -0.00302
- ATTTGCAA — higher, 0.277
- ATCACTAC — higher, -0.0793
- TGTCTTAA — higher, 0.0428
- AGTTCGGA — higher, -0.0209
- ATTGGGTG — higher, 0.223
- ATTTTGCC — higher, 0.00727
- ACAGAGAT — higher, 0.114
- CACGCACG — lower, -0.131
- GTCCGGAA — higher, 0.185
- ACTAGGCA — higher, -0.12
- CATCGTGG — lower, -0.134
- ACCGTGGG — lower, -0.164
- TGCAGTAA — higher, 0.00273
- AGGAGGGA — lower, -0.172
- GTTTCAAA — higher, 0.0237
- AGGTCGCA — higher, -0.0717
- ACGGCAGC — higher, -0.0399
- CGTAGTGA — higher, -0.0912
- ACATACTC — higher, -0.0622
- AATGTAGC — higher, -0.00519
- GACACCAC — higher, -0.0527
- AGATAAAT — higher, 0.139
- GCCACTAA — higher, 0.00114
- ACTCGGCA — higher, 0.0624
- GCTCGTAA — higher, -0.0485
- AAGTGTCA — higher, -0.115
- GCACACAA — higher, 0.127
- ACAAAAGC — higher, 0.157
- GTGCTCCA — higher, -0.119
- CAAATGTG — higher, 0.145
- AAGTGAAC — higher, -0.0802
- AGGGAGAT — lower, -0.277
- AACGCTGC — higher, 0.0374
- ATGATACC — higher, 0.151
- ACCTCTAT — higher, 0.0745
- GTTTAATA — higher, 0.189
- ACTGACTA — higher, 0.116
- AAGCCGAA — higher, 0.0954
- AAAACCTA — higher, 0.121
- CCGTACCC — higher, -0.0621
- CGCCGCCA — lower, -0.137
- AAGTAAAA — higher, 0.0173
- TCCGGACA — higher, 0.205
- TACCTATA — higher, -0.0582
- AATCCAAG — higher, 0.143
- AGGCGATA — higher, -0.117
- GTGTTACA — higher, -0.0597
- AAACGCTA — lower, -0.159
- GACGACAA — higher, 0.208
- CGTCAGAG — higher, -0.0391
- GCCGTAGC — higher, -0.0885
- GCACCACC — lower, -0.16
- CCTACAAA — higher, -0.0767
- CACTGGCG — higher, -0.0107
- GGGCCTAC — lower, -0.3
- ATGTCCCG — lower, -0.137
- CAATACAC — higher, 0.228
- ACTGTGCT — higher, -0.0333
- ACCCGAGA — higher, 0.0384
- AGACCCGG — lower, -0.149
- CGGTGAGA — higher, 0.022
- GCCTAACA — higher, 0.098
- GTACCTTA — higher, 0.0564
- CAATGCAA — higher, 0.0827
- TATCAATA — higher, 0.177
- AACCACAC — higher, 0.0857
- ATTGGAAA — higher, -0.0143
- AGTAAAAT — higher, 0.216
- CGGAGACC — higher, -0.0789
- CTGACAGA — higher, 0.192
- CTATTAAG — lower, -0.191
- AAGCATCC — lower, -0.23
- CGGGCTCA — lower, -0.276
- AGCCGCCA — lower, -0.226
- TCACGGAA — higher, 0.0721
- ATATAAAG — higher, -0.0214
- GGCGCATA — higher, 0.0456
- TGCATCAA — higher, 0.198
- ATCATCCA — higher, -0.00907
- TGGCCTAA — higher, 0.0681
- AACCGTCT — higher, -0.099
- CAAGACCG — higher, -0.05
- ACTGCCTC — lower, -0.192
- CATGAGAC — lower, -0.171
- CTCTGAAG — lower, -0.153
- AAAGCCAC — higher, -0.0588
- AGGCCCGC — higher, 0.0969
- GATAGTAA — higher, 0.156
- GTCAAAAC — higher, 0.0371
- TATGTACA — higher, -0.00213
- CACATCGC — higher, -0.0385
- AAAACGTC — higher, 0.175
- GTGAGCTA — higher, -0.029
- CCCACTAG — lower, -0.257
- AATCAACT — higher, 0.152
- CAAATAAC — higher, 0.181
- AGTTTTAT — higher, 0.103
- CCGAAGTA — higher, -0.0817
- CGCCATAC — higher, 0.102
- AACCATTC — higher, -0.0245
- CAATGCCA — higher, -0.0658
- CGTTCTTA — higher, 0.0967
- ACATCGCC — higher, 0.0313
- CGTACGCA — higher, 0.00346
- TCCTGCAA — higher, 0.0444
- GGGGCGAC — lower, -0.16
- CGACATAG — higher, -0.0597
- TGGCATAA — higher, 0.168
- AAAAATTG — lower, -0.134
- AAAGGACG — higher, -0.0954
- TGACTGCA — higher, 0.069
- CTGGAGAC — higher, -0.122
- AGATTGTA — higher, 0.0103
- AAAAAGCC — higher, 0.184
- TATCTAAA — higher, 0.0192
- GGTTTCGA — higher, 0.0604
- ATGGGGAG — lower, -0.223
- GCGCTCTA — lower, -0.148
- TAACGCGA — higher, 0.124
- CCGGTAAG — higher, 0.00932
- CTGTACAA — higher, 0.144
- TACGGAGA — higher, -0.0721
- TGACGAAA — higher, 0.135
- GATCGCGA — higher, 0.132
- TCAGATGA — higher, 0.0891
- CGTAAGCC — higher, 0.166
- GTAGGTGA — higher, -0.0704
- CGATGGCC — higher, -0.0094
